Values from PubChem BioAssay AID652243 (Drosophila RNAi Screening Center, 2013).

Purpose: 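Fly regulators of androgen-dependent reporter output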 (primary screen)
Cell system: Drosophila S2R+ cells
Knock-down reagent: long dsRNA against Drosophila genes
Timing: 72 h (48 h, then 24 h hormone)
Treatment: synthetic androgen R1881 at 10 nM for 24 h
Measurement: 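Per-well raw luminescence of the androgen-driven firefly reporter and of the Renilla control, two replicates each, without normalisation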
Direction: firefly reporter light: higher = more light from androgen-responsive reporter; Renilla control light: higher = more constitutive control signal (cell number, transfection)
Hit rule: 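Across duplicate plates, a knock-down whose log firefly/Renilla ratio shifted a set fold down or up from the GFP/LacZ control mean was a hit; the downward cut appears as both 1.5 and 3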
Calls: active = hit: reporter lowered or raised; inactive = no hit
In all, the deposit lists about 24,000 reagents; below is an unselected part of those with a known target gene and a result. Of all reagents, 246 (1%) were called active. 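Plates not normalised; calls are printed but the firefly/Renilla ratio behind them is not deposited; fold cut for lowering reported inconsistently.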 Raw values are not corrected between plates. A plus sign joins genes that one reagent is predicted to hit. Not given: the amount of reagent.

gene	DRSC id	firefly reporter light, replicate 1	firefly reporter light, replicate 2	Renilla control light, replicate 1	Renilla control light, replicate 2	Outcome
CG31870	DRSC21681	6.80e5	6.89e5	2.56e6	2.26e6	inactive
CG31870	DRSC27838	4.44e5	4.79e5	5.75e5	1.03e6	inactive
p47	DRSC06046	9.08e5	7.84e5	2.39e6	2.58e6	inactive
CG4849	DRSC15662	1.47e5	79874	7.27e5	5.30e5	inactive
CG4849	DRSC27175	4.00e5	3.68e5	5.04e5	4.95e5	inactive
Tmtc2	DRSC24987	6.46e5	5.72e5	9.48e5	1.15e6	inactive
asRNA:CR31084 + CG34291	DRSC38762	7.98e5	5.85e5	1.43e6	1.00e6	inactive
Snr1	DRSC12369	23468	31606	1.97e5	1.90e5	inactive
unc-45	DRSC15449	1.08e5	1.31e5	1.23e6	1.23e6	inactive
CG1143	DRSC08188	1.36e5	51951	1.06e6	5.33e5	inactive
CG12885	DRSC14572	80010	74521	1.37e6	2.55e6	inactive
CG12885	DRSC25241	8.20e5	6.50e5	1.33e6	1.38e6	inactive
CG4000	DRSC15535	1.96e5	1.14e5	1.74e6	1.56e6	inactive
CG4000	DRSC21547	5.16e5	6.21e5	1.83e6	1.76e6	inactive
CG4000	DRSC25094	8.42e5	9.66e5	1.18e6	1.01e6	inactive
rau	DRSC03125	6.56e5	1.00e6	1.61e6	1.61e6	inactive
rau	DRSC29748	3.35e5	3.44e5	1.28e6	1.19e6	inactive
CG5973	DRSC02918	1.30e6	1.24e6	2.51e6	2.57e6	inactive
CG5255	DRSC15754	1.18e5	1.24e5	2.22e6	2.43e6	inactive
CG5255	DRSC24877	6.58e5	6.02e5	7.01e5	8.62e5	inactive
Tgi	DRSC09793	2.49e5	1.83e5	1.92e6	1.70e6	inactive
Tgi	DRSC09794	2.23e5	2.22e5	2.69e6	2.30e6	inactive
Tgi	DRSC25518	7.74e5	7.25e5	5.01e5	6.18e5	inactive
Setd3	DRSC17840	2.52e5	4.05e5	3.04e6	3.57e6	inactive
Setd3	DRSC18269	2.50e5	2.87e5	1.97e6	1.62e6	inactive
CG8191	DRSC20091	9.53e5	8.60e5	5.19e6	3.65e6	inactive
CG42360	DRSC04224	1.51e5	2.66e5	1.07e6	1.15e6	inactive
ver	DRSC10125	2.87e5	2.64e5	2.38e6	2.17e6	inactive
ver	DRSC28113	6.93e5	5.76e5	1.89e6	1.68e6	inactive
CG3927	DRSC04433	3.13e5	2.40e5	2.83e6	2.87e6	inactive
CG3927	DRSC22813	5.55e5	9.49e5	8.43e5	1.11e6	inactive
PIG-H	DRSC14856	1.21e5	1.62e5	3.49e6	2.24e6	inactive
CG5986	DRSC15931	57124	62093	5.44e5	5.24e5	inactive
CG5986	DRSC24247	6.42e5	5.92e5	5.22e5	7.30e5	inactive
CG4617	DRSC18377	84011	54475	8.02e5	4.93e5	inactive
CG4617	DRSC23828	9.64e5	1.07e6	7.03e5	8.31e5	inactive
brv2	DRSC10226	2.41e5	1.43e5	2.02e6	1.38e6	inactive
brv2	DRSC29796	6.53e5	4.79e5	1.49e6	1.50e6	inactive
CG6225	DRSC15996	78878	1.11e5	1.49e6	1.88e6	inactive
bwa	DRSC01749	1.15e5	1.85e5	3.06e5	5.36e5	inactive
bwa	DRSC02310	1.89e5	2.06e5	1.68e6	1.69e6	inactive
